# Measurements reported in PubChem BioAssay AID1259308 (NCATS, 2017)
# Test: 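Candidate targets for better recombinant protein yield in mammalian cells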 (primary screen)
# Cells: human HEK293 embryonic kidney cells stably expressing firefly luciferase (HEK-CMV-Luc2-Hygro)
# Knock-down reagent: single siRNA against human genes, 0.8 pmol siRNA per well
# Timing: 72 h
# Read-out: 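Luciferase light (ONE-Glo) measured on one replicate plate set and viability (CellTiter-Glo) on the other, scaled to a negative control siRNA, with robust z-scores and luciferase per cell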
# Direction: total luciferase, z-score: higher = more reporter protein produced
# Hit rule: 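Active when the median/MAD z-score for overall luciferase is greater than 3; a gene was taken forward for validation with new siRNAs if at least two of its three siRNAs passed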
# Meaning of the calls: active = raised luciferase; inactive = no rise
# The deposit covers about 59,000 reagents; below is a part drawn at random. About 1,510 of all reagents (2.6%) count as active. 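Calls use total luciferase alone and ignore viability, so some active siRNAs may act by altering cell number.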 Unmarked entries are inactive. The numbers tell different reagents against one gene apart. Not all columns of the deposit are shown.
target,siRNA no.,"total luciferase, z-score"
ATP5MG (ATP synthase membrane subunit g),1,0.842
ATP5MG (ATP synthase membrane subunit g),2,-0.143
ATP5MG (ATP synthase membrane subunit g),3,0.272
ZNF654 (zinc finger protein 654),1,0.381
ZNF654 (zinc finger protein 654),2,1.48
ZNF654 (zinc finger protein 654),3,0.0966
"FAM91A3P (family with sequence similarity 91 member A3, pseudogene)",1,-0.498
"FAM91A3P (family with sequence similarity 91 member A3, pseudogene)",2,-0.445
"FAM91A3P (family with sequence similarity 91 member A3, pseudogene)",3,-0.271
LAMB2 (laminin subunit beta 2),1,1.69
LAMB2 (laminin subunit beta 2),2,2.16
LAMB2 (laminin subunit beta 2),3,-0.22
TEX10 (testis expressed 10),1,0.273
TEX10 (testis expressed 10),2,1.16
TEX10 (testis expressed 10),3,0.255
CFAP210 (cilia and flagella associated protein 210),1,0.282
CFAP210 (cilia and flagella associated protein 210),2,0.046
CFAP210 (cilia and flagella associated protein 210),3,0.178

Reprinted from above, 4 entries:
target,siRNA no.,"total luciferase, z-score"
LAMB2 (laminin subunit beta 2),1,1.69
LAMB2 (laminin subunit beta 2),2,2.16
LAMB2 (laminin subunit beta 2),3,-0.22
TEX10 (testis expressed 10),1,0.273

Further reagents:
target,siRNA no.,"total luciferase, z-score"
PDIA6 (protein disulfide isomerase family A member 6),1,-1.93
PDIA6 (protein disulfide isomerase family A member 6),2,0.137
PDIA6 (protein disulfide isomerase family A member 6),3,-0.0979
AGER (advanced glycosylation end-product specific receptor),1,-1.1
AGER (advanced glycosylation end-product specific receptor),2,0.995
AGER (advanced glycosylation end-product specific receptor),3,-1.42
RPS4X (ribosomal protein S4 X-linked),1,-2.86
RPS4X (ribosomal protein S4 X-linked),2,-2.15
RPS4X (ribosomal protein S4 X-linked),3,-2.69
DIO3 (iodothyronine deiodinase 3),1,0.181
DIO3 (iodothyronine deiodinase 3),2,1.52
DIO3 (iodothyronine deiodinase 3),3,0.351
TRPV4,1,0.0298
TRPV4,2,0.144
TRPV4,3,-1.77
CPEB4 (cytoplasmic polyadenylation element binding protein 4),1,1.49
CPEB4 (cytoplasmic polyadenylation element binding protein 4),2,0.188
CPEB4 (cytoplasmic polyadenylation element binding protein 4),3,0.147
L2HGDH (L-2-hydroxyglutarate dehydrogenase),1,-1.1
L2HGDH (L-2-hydroxyglutarate dehydrogenase),2,1.86
L2HGDH (L-2-hydroxyglutarate dehydrogenase),3,-0.648
